Results taken from article PMC5927464 (2018).

Biological target: HA-tagged L* protein of TMEV strain DA (HA-L*DA) (Theiler's murine encephalomyelitis virus, strain DA)
Experiment: co-IP; Flag-tagged RNase L constructs and N-terminally HA-tagged L* co-expressed in 293T cells; HA-L* immunoprecipitated from lysates with anti-HA antibody and protein A/G magnetic beads; immunoblot with anti-Flag and anti-HA

Binder	binding
Flag-HuRNase L—D26, S27, S28, K47, D50, A51 (enzyme, UniProt Q05823 21-719) AAVEDDSSLIKAVQNEDVDLVQQLLEKGADANFQEEEGGWTPLHNAVQMSREDIVELLLRHGADPVLRKKNGATPFILAAIAGSVKLLKLFLSKGADVNECDFYGFTAFMEAAVYGKVKALKFLYKRGANVNLRRKTKEDQERLRKGGATALMDAAEKGHVEVLKILLDEMGADVNACDNMGRNALIHALLSSDDSDVEAITHLLLDHGADVNVRGERGKTPLILAVEKKHLGLVQRLLEQEHIEINDTDSDGKTALLLAVELKLKKIAELLCKRGASTDCGDLVMTARRNYDHSLVKVLLSHGAKEDFHPPAEDWKPQSSHWGAALKDLHRIYRPMIGKLKFFIDEKYKIADTSEGGIYLGFYEKQEVAVKTFCEGSPRAQREVSCLQSSRENSHLVTFYGSESHRGHLFVCVTLCEQTLEACLDVHRGEDVENEEDEFARNVLSSIFKAVQELHLSCGYTHQDLQPQNILIDSKKAAHLADFDKSIKWAGDPQEVKRDLEDLGRLVLYVVKKGSISFEDLKAQSNEEVVQLSPDEETKDLIHRLFHPGEHVRDCLSDLLGHPFFWTWESRYRTLRNVGNESDIKTRKSESEILRLLQPGPSEHSKSFDKWTTKINECVMKKMNKFYEKRGNFYQNTVGDLLKFIRNLGEHIDEEKHKKMKLKIGDPSLYFQKTFPDLVIYVYTKLQNTEYRKHFPQT	binds
Flag-HuRNase L—D26, S27, S28 (enzyme, UniProt Q05823 21-719) AAVEDDSSLIKAVQNEDVDLVQQLLEGGANVNFQEEEGGWTPLHNAVQMSREDIVELLLRHGADPVLRKKNGATPFILAAIAGSVKLLKLFLSKGADVNECDFYGFTAFMEAAVYGKVKALKFLYKRGANVNLRRKTKEDQERLRKGGATALMDAAEKGHVEVLKILLDEMGADVNACDNMGRNALIHALLSSDDSDVEAITHLLLDHGADVNVRGERGKTPLILAVEKKHLGLVQRLLEQEHIEINDTDSDGKTALLLAVELKLKKIAELLCKRGASTDCGDLVMTARRNYDHSLVKVLLSHGAKEDFHPPAEDWKPQSSHWGAALKDLHRIYRPMIGKLKFFIDEKYKIADTSEGGIYLGFYEKQEVAVKTFCEGSPRAQREVSCLQSSRENSHLVTFYGSESHRGHLFVCVTLCEQTLEACLDVHRGEDVENEEDEFARNVLSSIFKAVQELHLSCGYTHQDLQPQNILIDSKKAAHLADFDKSIKWAGDPQEVKRDLEDLGRLVLYVVKKGSISFEDLKAQSNEEVVQLSPDEETKDLIHRLFHPGEHVRDCLSDLLGHPFFWTWESRYRTLRNVGNESDIKTRKSESEILRLLQPGPSEHSKSFDKWTTKINECVMKKMNKFYEKRGNFYQNTVGDLLKFIRNLGEHIDEEKHKKMKLKIGDPSLYFQKTFPDLVIYVYTKLQNTEYRKHFPQT	no binding

Results are given in words; binding and its absence hold for the method and conditions named. In cells and extracts the contact can be indirect. Binding can be weak; no strength is given. Sequences can lack the tags named with a protein.
